Test results reported in article PMC6546063.
These are yes or no findings as the source states them, for the method shown. In cells and extracts the contact can be indirect. Some entries that bind do so weakly or less than the wild type.

Protein sequences, listed by entry. Tags and fused reporters are not part of them.
UniProt O00308: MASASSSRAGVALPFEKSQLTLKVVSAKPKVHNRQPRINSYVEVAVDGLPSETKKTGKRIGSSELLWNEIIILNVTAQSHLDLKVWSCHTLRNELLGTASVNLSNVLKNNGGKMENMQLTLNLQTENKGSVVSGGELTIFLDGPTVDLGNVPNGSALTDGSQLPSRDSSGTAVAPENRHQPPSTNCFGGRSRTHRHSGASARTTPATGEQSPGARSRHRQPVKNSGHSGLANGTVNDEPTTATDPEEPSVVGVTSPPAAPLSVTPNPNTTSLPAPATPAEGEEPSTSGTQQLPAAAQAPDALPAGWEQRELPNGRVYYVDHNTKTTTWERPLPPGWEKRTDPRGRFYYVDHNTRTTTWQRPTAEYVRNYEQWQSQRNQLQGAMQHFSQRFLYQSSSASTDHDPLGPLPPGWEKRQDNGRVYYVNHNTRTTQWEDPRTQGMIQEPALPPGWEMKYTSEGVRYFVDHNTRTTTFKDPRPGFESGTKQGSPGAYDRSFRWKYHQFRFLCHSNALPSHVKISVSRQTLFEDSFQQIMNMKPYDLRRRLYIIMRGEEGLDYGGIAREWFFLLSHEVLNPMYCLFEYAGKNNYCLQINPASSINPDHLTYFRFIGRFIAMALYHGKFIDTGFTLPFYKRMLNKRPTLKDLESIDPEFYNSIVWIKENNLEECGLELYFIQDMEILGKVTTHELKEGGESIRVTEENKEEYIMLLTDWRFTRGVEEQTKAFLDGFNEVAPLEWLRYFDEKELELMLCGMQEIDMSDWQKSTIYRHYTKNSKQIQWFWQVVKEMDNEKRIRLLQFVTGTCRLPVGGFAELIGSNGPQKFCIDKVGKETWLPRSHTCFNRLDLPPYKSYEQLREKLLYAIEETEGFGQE
UniProt P13010: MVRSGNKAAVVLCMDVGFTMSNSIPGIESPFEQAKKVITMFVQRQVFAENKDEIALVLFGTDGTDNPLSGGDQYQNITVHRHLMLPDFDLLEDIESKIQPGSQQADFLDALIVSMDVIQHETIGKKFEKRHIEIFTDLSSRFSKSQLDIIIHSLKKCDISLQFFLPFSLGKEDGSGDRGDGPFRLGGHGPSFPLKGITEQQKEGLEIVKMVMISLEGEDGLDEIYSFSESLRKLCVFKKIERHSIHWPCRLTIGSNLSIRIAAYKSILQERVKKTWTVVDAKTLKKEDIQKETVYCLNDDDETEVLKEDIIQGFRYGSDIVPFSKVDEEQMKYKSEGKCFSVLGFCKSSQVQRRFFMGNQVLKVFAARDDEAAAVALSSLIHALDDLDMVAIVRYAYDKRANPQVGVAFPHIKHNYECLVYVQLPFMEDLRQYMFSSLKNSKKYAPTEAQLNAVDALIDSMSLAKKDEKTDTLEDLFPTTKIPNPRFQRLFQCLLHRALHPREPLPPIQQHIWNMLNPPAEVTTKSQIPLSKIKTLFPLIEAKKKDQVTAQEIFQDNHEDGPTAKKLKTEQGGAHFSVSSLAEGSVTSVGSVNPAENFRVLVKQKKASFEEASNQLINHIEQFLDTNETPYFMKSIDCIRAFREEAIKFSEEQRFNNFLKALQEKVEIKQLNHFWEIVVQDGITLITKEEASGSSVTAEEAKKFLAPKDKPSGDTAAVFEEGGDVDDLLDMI

Target: GFP-tagged WWP2 (human) (UniProt O00308)
Experiment: co-IP; GFP pull-down under physiological conditions: lysate in EBC buffer (50 mM Tris pH 7.5, 150 mM NaCl, 0.5% NP-40, 2.5 mM MgCl2) with benzonase, GFP-Trap-A beads 2 h or overnight at 4°C, washes with 250 mM NaCl, Western blot

## Ku80 (endogenous) (from UniProt P13010 1-732)
  binding: binds
